Source: PMC2680759, “Non-Invasive Molecular Imaging of Fibrosis Using a Collagen-Targeted Peptidomimetic of the Platelet Collagen Receptor Glycoprotein VI” (PLoS ONE, 2009)
No constants are given. Whether binding was seen depends on the method and setting.

Legend:
Assay in all cases: ELISA; solid-phase assay: biotin-peptides (50 µg.mL^−1) on microtitration wells coated with 1 µg of protein, detected with HRP-coupled extravidin; in competition collagelin was mixed with GPVI-Fc, 9O12.2 IgG or 3J24.2 IgG (50 µg.mL^−1 each) before addition to collagen-coated wells; both purified
murine laminin (murine) = target: murine laminin (murine)
[1] = target: human fibronectin (human)
rat vitronectin (rat) = target: rat vitronectin (rat)

Measured: binding

B1: cyclic control peptide Pc, biotinylated (B-Pc) (peptide)
peptide: SGSGCGPQGARGLTGASAGGPC
modifications: biotinylated at the N-terminus; cyclic
no binding (tested: 50 µg.mL^−1): all assays above
